{"source": "PubChem BioAssay AID540276", "about": "(National Center for Advancing Translational Sciences (NCATS), 2011)", "note": "The whole screen tested about 300,000 compounds, of which about 5,400 (1.8%) were called active. This list was built around the results that the source calls inconclusive (neither active nor inactive); the mix of calls is not that of the screen. The call rests on the fitted dose curve; tested in HEK293 cells. Potencies of inconclusive entries are doubtful fits and often do not repeat. On the % scale 0 is the no-effect control and ±100 the full control effect; potency means the concentration at half of the fitted maximal effect.", "data": [{"experiment": "qHTS for inhibitors of binding or entry into cells for Marburg Virus", "settings": "Marburg virus pseudotyped entry inhibition, cell reporter; activity change, negative = inhibition: at 37.8 µM (top of the series) unless noted", "values": [{"compound": "CC(C)(C)n1nnnc1CN1CCC(NC(=O)NC2CCCCC2)CC1", "Potency": "inactive"}, {"compound": "CCOc1ccc(CCNC(=O)c2cc3c(s2)-c2ccccc2OC3)cc1OCC", "Potency": "inconclusive: 35.5 µM [inhibitor, single point]"}, {"compound": "Cc1onc(-c2c(F)cccc2Cl)c1C(=O)N1CCN(c2ncc(Br)cn2)CC1", "Potency": "inconclusive: 1.78 µM [inhibitor, single point]"}, {"compound": "CCN(CC)C(=O)c1n[nH]c(=O)c2ccccc12", "Potency": "inconclusive: 1.16 µM [activator, single point]"}, {"compound": "CCOC(=O)C(=NC(C)(C)C)NNc1cc(Cl)ccc1Cl", "Potency": "inconclusive: 32.6 µM [activator, partial curve, poor fit]"}, {"compound": "CC(C)[C@H](NC(=O)c1ccco1)C(=O)NCc1ccccc1", "Potency": "inconclusive: 6.31 µM [activator, single point]"}, {"compound": "Cc1ccc(-c2cc(NC(=O)COc3ccc(Cl)cc3C)on2)cc1", "Potency": "inactive"}, {"compound": "CN(Cc1ccccc1)C(=O)CN1CCN(C(c2ccccc2)c2ccccc2)CC1", "Potency": "inconclusive: 35.5 µM [inhibitor, single point]"}, {"compound": "Cc1ccc(-n2c(C)nn(CC3CC3)c2=O)cc1", "Potency": "inactive"}, {"compound": "COCCN(C(=O)COC(=O)/C=C/c1ccc(Cl)c(Cl)c1)c1c(N)n(Cc2ccccc2)c(=O)[nH]c1=O", "Potency": "inconclusive: 0.708 µM [activator, partial curve, poor fit]"}, {"compound": "O=C(c1nn2c(C(F)(F)F)cc(-c3ccco3)nc2c1Br)N1CCCc2ccccc21", "Potency": "inconclusive: 0.447 µM [inhibitor, full curve, poor fit]"}, {"compound": "S=C(NCCN1CCOCC1)N1CCN(c2cccc(Cl)c2)CC1", "Potency": "inconclusive: 1.58 µM [inhibitor, full curve, poor fit]"}, {"compound": "COc1ccc2oc(=O)c(-c3csc(Nc4ccc(O)cc4)n3)cc2c1", "Potency": "inconclusive: 11.2 µM [inhibitor, partial curve]"}, {"compound": "COc1ccc(NC(=S)NC(=O)c2cncc(Br)c2)cc1", "Potency": "inactive"}, {"compound": "Cc1nc(COc2ccccc2Cl)sc1-c1ccnc(N)n1", "Potency": "inconclusive: 12.6 µM [inhibitor, single point]"}, {"compound": "O=C(COC(=O)c1ccc[nH]c1=O)Nc1cc(S(=O)(=O)N2CCCCCC2)ccc1Cl", "Potency": "inactive"}, {"compound": "Brc1ccc(CNCc2cccs2)cc1", "Potency": "inconclusive: 1.41 µM [inhibitor, partial curve, poor fit]"}, {"compound": "CCOc1ccc(-c2nnc3ccc(SCC(=O)NCc4ccco4)nn23)cc1", "Potency": "inactive"}, {"compound": "O=Cc1ccccc1Oc1ccccc1", "Potency": "inactive"}, {"compound": "COc1ccc(CCNS(=O)(=O)c2cccc(S(=O)(=O)N3CCCC3)c2)cc1OC", "Potency": "inconclusive: 0.891 µM [activator, full curve, poor fit]"}, {"compound": "Cc1csc2nc(O)c(C(=O)NC3CCCCC3C)c(=O)n12", "note": "(stereo not given)", "Potency": "inactive"}, {"compound": "CCOc1ccc(NC(=O)CC2C(=O)N(c3ccccc3)C(=O)N2Cc2ccc3c(c2)OCO3)cc1", "note": "(stereo not given)", "Potency": "inactive"}, {"compound": "CCNc1nc(OC)nc(Oc2ccc(C(=O)OC)cc2)n1", "Potency": "inactive"}, {"compound": "C#CCN1C(=O)[C@]2(OCCC=C[C@H]2C)c2c(Br)cccc21", "Potency": "inconclusive: 4.22 µM [inhibitor, single point]"}, {"compound": "CCN(Cc1ccccc1)c1ccc(/C=N/NC(=O)c2cccc(S(=O)(=O)N3CCOCC3)c2)cc1", "Potency": "inconclusive: 20.6 µM [inhibitor, partial curve, poor fit]"}, {"compound": "Cc1ccc(S(=O)(=O)N2CCN(C(=O)COc3ccc(Br)cc3)CC2)cc1", "Potency": "inconclusive: 35.5 µM [inhibitor, single point]"}, {"compound": "CCOC(=O)c1ccc(NC(=S)Nc2ccc(C)cc2)cc1", "Potency": "inconclusive: 6.31 µM [activator, partial curve, poor fit]"}, {"compound": "O=C(c1ccco1)N1CCN(C(c2cccs2)c2nnnn2C2CCCC2)CC1", "note": "(stereo not given)", "Potency": "inconclusive: 6.31 µM [inhibitor, single point]"}, {"compound": "COc1ccc(NC(=O)Cn2cnc3sc(C)c(S(=O)(=O)N4CCOCC4)c3c2=O)c(OC)c1", "activity change, negative = inhibition": "inconclusive: 38.9% [activator] [at 46.1 µM]"}, {"compound": "O=C(O)Cn1c(=O)c(-c2ccccc2)nc2ccccc21", "Potency": "inactive"}, {"compound": "COc1ccc(CNC(=O)c2csc(Cc3ccccc3)n2)cc1", "Potency": "inconclusive: 0.708 µM [inhibitor, partial curve, poor fit]"}, {"compound": "COc1ccc(N(CC(=O)NC2CCS(=O)(=O)C2)S(=O)(=O)c2ccc(Cl)c(Cl)c2)cc1", "note": "(stereo not given)", "Potency": "inactive"}, {"compound": "Cc1ccc(Nc2nc(N)nc(CSCCO)n2)cc1", "Potency": "inconclusive: 3.55 µM [activator, single point]"}, {"compound": "COCCCNCCCCOc1ccc(Br)cc1C", "Potency": "active: 13 µM"}, {"compound": "O=C(CC1CCOCC1)Nc1ccc(Cl)c(Cl)c1", "Potency": "inactive"}, {"compound": "N#CC1=C(N)Oc2cc3ccccc3cc2C1c1cccs1", "note": "(stereo not given)", "Potency": "inconclusive: 11.2 µM [inhibitor, partial curve, poor fit]"}, {"compound": "COC(=O)CSc1nnc(-c2ccccn2)n1N", "Potency": "inconclusive: 3.16 µM [inhibitor, partial curve, poor fit]"}, {"compound": "O=C(Nc1sc2c(c1C(=O)O)CCCC2)c1ccc(F)cc1", "Potency": "active: 2.51 µM"}, {"compound": "COc1cc(OC)cc(-c2nc(-c3cccc(C)c3)no2)c1", "Potency": "inconclusive: 11.2 µM [activator, partial curve]"}, {"compound": "O=C(CCCc1c[nH]c2ccccc12)N[C@@H](Cc1c[nH]c2ccccc12)C(=O)O", "Potency": "inactive"}, {"compound": "COc1cccc(C2C(C#N)=C(N)Oc3cc(C)n(Cc4ccco4)c(=O)c32)c1", "note": "(stereo not given)", "Potency": "inactive"}, {"compound": "CC(C)NC(=O)c1cnc(N2CCN(c3ccccn3)CC2)c2ccccc12", "Potency": "inconclusive: 35.5 µM [inhibitor, partial curve, poor fit]"}, {"compound": "COc1cc(OC)c(OC)cc1/C=N/Nc1ccc(Cl)nn1", "Potency": "inconclusive: 6.31 µM [inhibitor, single point]"}, {"compound": "c1ccc(C2CNCc3c2ccc2ccccc32)cc1", "note": "(stereo not given)", "Potency": "inconclusive: 29.1 µM [inhibitor, single point]"}, {"compound": "CC(C)CCN(C(=S)Nc1cccc(F)c1)C1CCN(C(C)C)CC1", "Potency": "inconclusive: 15.8 µM [inhibitor, single point]"}]}]}
